Source: doi:10.1101/2025.05.19.654886
Results are given in words; binding and its absence hold for the method and conditions named. Binding seen in cells or lysates may run through a third protein. Some entries that bind do so weakly or less than the wild type.

Chains of the proteins cited; added tags and fusions are not shown. Lines headed by an entry give the natural chain unless they say otherwise; changes in a name come on top.
UniProt P56962: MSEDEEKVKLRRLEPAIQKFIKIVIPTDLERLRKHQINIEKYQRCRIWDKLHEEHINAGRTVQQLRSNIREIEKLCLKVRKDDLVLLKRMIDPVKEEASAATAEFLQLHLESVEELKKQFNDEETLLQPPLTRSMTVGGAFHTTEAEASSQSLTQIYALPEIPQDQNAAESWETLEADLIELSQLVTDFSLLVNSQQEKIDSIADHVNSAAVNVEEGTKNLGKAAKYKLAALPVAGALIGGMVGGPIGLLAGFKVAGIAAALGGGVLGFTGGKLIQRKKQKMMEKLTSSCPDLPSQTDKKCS
UniProt O95721: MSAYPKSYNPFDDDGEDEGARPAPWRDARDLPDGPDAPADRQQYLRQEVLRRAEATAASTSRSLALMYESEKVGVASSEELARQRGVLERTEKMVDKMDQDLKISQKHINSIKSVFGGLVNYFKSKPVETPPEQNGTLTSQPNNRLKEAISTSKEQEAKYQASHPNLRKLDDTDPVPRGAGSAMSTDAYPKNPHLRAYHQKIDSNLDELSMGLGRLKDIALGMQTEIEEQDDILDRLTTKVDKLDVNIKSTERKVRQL
UniProt Q14457: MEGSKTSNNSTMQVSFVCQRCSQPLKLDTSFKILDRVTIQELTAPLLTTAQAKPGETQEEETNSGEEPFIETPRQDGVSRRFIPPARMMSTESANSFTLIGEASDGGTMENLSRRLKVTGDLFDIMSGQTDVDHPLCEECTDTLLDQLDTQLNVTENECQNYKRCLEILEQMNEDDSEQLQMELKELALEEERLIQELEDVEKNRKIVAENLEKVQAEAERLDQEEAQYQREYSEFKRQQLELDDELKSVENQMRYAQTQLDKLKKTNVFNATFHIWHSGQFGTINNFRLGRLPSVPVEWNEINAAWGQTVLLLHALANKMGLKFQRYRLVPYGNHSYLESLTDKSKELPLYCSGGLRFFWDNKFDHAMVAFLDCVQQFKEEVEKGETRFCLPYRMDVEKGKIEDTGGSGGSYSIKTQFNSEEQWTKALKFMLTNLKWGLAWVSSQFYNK
UniProt Q6ZNE5: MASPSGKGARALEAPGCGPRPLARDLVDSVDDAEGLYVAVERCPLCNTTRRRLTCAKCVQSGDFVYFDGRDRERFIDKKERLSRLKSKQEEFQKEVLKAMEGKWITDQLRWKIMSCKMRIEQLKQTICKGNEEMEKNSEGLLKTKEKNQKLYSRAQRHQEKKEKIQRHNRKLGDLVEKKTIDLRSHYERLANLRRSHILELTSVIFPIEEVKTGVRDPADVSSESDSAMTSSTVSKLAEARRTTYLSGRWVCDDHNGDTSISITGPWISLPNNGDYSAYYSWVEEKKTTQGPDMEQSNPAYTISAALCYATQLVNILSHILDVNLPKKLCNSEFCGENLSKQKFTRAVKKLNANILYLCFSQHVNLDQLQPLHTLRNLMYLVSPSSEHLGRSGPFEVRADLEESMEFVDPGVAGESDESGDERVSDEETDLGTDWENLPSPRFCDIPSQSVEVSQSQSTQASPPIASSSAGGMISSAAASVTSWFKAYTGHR
UniProt Q8TDY2: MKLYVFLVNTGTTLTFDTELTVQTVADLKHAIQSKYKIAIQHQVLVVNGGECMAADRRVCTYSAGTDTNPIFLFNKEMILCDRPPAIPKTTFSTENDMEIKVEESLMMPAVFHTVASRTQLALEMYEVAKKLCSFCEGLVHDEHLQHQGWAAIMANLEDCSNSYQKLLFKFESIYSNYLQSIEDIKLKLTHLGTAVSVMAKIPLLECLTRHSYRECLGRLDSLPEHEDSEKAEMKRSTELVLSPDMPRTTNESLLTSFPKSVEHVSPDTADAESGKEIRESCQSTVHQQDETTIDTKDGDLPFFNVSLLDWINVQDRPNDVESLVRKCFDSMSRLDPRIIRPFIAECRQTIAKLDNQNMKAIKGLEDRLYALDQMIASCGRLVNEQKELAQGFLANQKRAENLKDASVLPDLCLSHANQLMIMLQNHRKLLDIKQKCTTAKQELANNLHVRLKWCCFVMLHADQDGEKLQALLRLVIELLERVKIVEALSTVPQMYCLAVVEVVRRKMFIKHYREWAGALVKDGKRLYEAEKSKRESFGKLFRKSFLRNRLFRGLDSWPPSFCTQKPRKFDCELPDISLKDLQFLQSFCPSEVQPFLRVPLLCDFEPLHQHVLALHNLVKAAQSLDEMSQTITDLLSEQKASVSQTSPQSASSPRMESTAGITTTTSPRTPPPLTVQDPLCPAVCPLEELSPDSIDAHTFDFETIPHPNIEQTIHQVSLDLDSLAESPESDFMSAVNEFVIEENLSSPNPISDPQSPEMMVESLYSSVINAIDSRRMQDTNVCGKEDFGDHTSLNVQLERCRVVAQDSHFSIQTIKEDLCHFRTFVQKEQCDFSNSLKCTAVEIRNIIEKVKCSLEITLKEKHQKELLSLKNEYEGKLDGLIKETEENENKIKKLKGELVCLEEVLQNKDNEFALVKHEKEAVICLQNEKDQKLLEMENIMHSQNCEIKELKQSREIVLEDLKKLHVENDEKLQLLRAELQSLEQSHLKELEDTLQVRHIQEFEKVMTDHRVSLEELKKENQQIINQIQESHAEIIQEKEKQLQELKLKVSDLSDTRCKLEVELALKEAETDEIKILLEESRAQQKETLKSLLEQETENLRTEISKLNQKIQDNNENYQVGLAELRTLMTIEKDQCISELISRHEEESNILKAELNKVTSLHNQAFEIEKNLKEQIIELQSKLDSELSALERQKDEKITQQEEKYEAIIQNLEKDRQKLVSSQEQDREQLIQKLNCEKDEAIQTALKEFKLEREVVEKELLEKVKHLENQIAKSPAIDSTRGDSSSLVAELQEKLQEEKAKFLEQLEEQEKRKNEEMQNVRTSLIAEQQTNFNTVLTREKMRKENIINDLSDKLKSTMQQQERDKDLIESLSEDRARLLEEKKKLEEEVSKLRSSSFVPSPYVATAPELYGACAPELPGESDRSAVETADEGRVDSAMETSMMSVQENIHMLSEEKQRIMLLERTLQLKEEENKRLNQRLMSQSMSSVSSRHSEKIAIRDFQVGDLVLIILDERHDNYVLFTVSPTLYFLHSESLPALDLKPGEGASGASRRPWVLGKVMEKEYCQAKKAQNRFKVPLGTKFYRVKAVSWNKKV

Assays:
[1] = molecular target: GST-STX17 (amino acids 1-224) (UniProt P56962); test: pull-down
[2] = molecular target: SNAP29 (purified, unmodified) (UniProt O95721); test: co-IP

Row | Substance | binding [1] | binding [2]
1 | Beclin1 (from UniProt Q14457 1-450) | no binding | 
2 | ATG14L (endogenous) (from UniProt Q6ZNE5 1-492) |  | binds
3 | FIP200 (from UniProt Q8TDY2 1-1594) | no binding | 
4 | GST-STX17 (amino acids 1-224) (from UniProt P56962 1-224) (domain or fragment) |  | binds
5 | STX17 (endogenous) (from UniProt P56962 1-302) |  | binds
